The text below walks through data of article PMC8050258.

Protein sequences, listed by entry. Tags and fused reporters are not part of them.
UniProt Q04207: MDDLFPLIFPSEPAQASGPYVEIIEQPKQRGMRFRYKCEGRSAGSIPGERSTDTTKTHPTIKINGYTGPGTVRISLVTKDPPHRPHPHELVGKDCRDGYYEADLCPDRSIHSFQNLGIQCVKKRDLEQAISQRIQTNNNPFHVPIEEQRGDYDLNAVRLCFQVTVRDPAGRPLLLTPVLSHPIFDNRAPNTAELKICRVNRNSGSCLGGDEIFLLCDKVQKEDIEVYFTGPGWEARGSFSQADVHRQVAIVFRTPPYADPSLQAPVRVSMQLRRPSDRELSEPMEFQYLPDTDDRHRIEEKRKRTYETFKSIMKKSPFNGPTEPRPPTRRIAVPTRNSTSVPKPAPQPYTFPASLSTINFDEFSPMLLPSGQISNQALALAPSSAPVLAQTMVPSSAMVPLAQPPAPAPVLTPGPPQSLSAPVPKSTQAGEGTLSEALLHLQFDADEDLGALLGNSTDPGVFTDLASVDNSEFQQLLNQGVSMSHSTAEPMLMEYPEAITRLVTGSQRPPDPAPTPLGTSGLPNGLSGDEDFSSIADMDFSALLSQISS
UniProt Q04206: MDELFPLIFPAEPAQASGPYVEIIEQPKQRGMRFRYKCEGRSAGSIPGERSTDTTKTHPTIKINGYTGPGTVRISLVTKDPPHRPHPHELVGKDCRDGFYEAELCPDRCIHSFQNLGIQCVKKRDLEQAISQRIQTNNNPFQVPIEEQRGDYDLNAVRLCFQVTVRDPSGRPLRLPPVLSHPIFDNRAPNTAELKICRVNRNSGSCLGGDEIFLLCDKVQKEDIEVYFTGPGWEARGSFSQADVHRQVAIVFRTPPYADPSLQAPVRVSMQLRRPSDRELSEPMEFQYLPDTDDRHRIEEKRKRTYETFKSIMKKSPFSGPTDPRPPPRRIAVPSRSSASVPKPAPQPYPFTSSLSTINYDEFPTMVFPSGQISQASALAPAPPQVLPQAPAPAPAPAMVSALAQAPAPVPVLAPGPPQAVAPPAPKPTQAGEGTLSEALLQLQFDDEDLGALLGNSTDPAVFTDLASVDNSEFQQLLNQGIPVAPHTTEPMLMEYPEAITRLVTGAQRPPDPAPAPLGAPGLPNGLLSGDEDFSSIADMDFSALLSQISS

Assay [1] has as its target T1, His-tagged SELENOW (SeCys-13) (UniProt P63300).
T1 sequence (chain, selenocysteine at 13 (SeCys-13)): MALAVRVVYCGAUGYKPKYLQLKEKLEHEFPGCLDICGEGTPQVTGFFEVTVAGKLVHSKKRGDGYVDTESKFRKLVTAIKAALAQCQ
Briefly: co-IP; called His-tag pull-down: extracts of HEK 293T cells expressing His-tagged SELENOW (wild type or SeCys-13 mutants), RIPA buffer, incubated overnight at 4 °C with anti-His-tag antibody, protein G agarose 3 h at 4 °C, washed three times with RIPA buffer, immunoblotted. A general note: A western blot detects proteins with antibodies after separation by electrophoresis.

Assay [2] addresses T2, SELENOW (retrovirally overexpressed in pre-osteoclasts) (UniProt P63300).
T2 sequence (chain, selenocysteine at 13 (SeCys encoded by UGA at codon 13)): T1 sequence (chain, selenocysteine at 13 (SeCys-13))
The assay can be described thus: co-IP; nuclear extracts of pre-osteoclasts (osteoclast precursors infected with SELENOW-overexpressing retrovirus, M-CSF and RANKL for 2 days) immunoprecipitated with antibodies against NFATc1, p65, 14-3-3γ or SELENOW, immunoblotted.

Assay [3] addresses T3, NFATc1, endogenous in mouse pre-osteoclasts (mouse (endogenous in pre-osteoclasts)) (UniProt O88942).
T3 sequence: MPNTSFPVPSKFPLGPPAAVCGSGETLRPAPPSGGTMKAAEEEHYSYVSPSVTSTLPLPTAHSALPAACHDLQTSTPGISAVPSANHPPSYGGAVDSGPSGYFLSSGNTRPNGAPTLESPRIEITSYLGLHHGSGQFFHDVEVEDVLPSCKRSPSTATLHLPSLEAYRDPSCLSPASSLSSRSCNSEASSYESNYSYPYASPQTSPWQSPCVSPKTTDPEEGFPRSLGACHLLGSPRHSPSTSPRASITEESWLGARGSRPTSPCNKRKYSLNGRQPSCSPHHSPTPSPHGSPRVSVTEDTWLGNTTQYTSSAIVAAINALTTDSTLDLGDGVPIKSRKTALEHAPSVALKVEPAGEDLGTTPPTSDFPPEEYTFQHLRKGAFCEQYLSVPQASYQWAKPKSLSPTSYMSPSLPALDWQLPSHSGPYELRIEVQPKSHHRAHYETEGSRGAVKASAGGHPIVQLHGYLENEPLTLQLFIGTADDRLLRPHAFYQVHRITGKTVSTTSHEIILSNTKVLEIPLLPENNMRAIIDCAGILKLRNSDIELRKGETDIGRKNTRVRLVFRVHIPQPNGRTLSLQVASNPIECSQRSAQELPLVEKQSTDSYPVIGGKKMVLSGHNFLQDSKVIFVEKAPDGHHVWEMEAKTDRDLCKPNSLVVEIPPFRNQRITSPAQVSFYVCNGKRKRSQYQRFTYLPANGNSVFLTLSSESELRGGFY
The assay is described as above.

For assay [4], the target named is T4, 14-3-3γ, endogenous in mouse pre-osteoclasts (mouse (endogenous in pre-osteoclasts)) (UniProt P61982).
T4 sequence: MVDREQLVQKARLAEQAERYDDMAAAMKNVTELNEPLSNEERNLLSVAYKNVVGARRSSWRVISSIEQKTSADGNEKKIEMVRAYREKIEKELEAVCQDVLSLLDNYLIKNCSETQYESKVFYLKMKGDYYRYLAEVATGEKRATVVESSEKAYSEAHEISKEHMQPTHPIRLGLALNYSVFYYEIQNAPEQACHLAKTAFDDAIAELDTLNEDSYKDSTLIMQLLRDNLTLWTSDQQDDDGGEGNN
Described as above.

The target in assay [5] is T2, SELENOW (retrovirally overexpressed in pre-osteoclasts). Described as above. The source holds these as a separate data set.
The target in assay [6] is NF-κB (p65), endogenous in mouse pre-osteoclasts (mouse (endogenous in pre-osteoclasts)) (UniProt Q04207). The description is as above.
In assay [7] the target is T4, 14-3-3γ, endogenous in mouse pre-osteoclasts (mouse (endogenous in pre-osteoclasts)). Described as above. The source holds these as a separate data set.
The target of assay [8] is T3, NFATc1, endogenous in mouse pre-osteoclasts (mouse (endogenous in pre-osteoclasts)). Described as above. This is another data set of the same source.

Where two headings read alike, the source gives them in different places. These are yes or no findings as the source states them, for the method shown. In cells and extracts the contact can be indirect. Some entries that bind do so weakly or less than the wild type. For some assays here: Sequences can lack the tags named with a protein.

Consider “NF-κB (p65), endogenous in HEK 293T (from UniProt Q04206 1-551)”, for which the binding result in assay [1] is recorded as “binds”.

As for “NF-κB (p65), endogenous in mouse pre-osteoclasts (from UniProt Q04207 1-549)”, the binding entry is recorded as “binds” in assay [2], “binds” in assay [3] and “no binding” in assay [4].

B1: NFATc1, endogenous in mouse pre-osteoclasts (protein, UniProt O88942 1-717)
chain: T3 sequence
As for B1, the binding result in assay [5], in assay [6] and in assay [7] was “binds” each time.

B2: NFATc1, endogenous in HEK 293T (protein, UniProt O95644 1-943)
chain: MPSTSFPVPSKFPLGPAAAVFGRGETLGPAPRAGGTMKSAEEEHYGYASSNVSPALPLPTAHSTLPAPCHNLQTSTPGIIPPADHPSGYGAALDGGPAGYFLSSGHTRPDGAPALESPRIEITSCLGLYHNNNQFFHDVEVEDVLPSSKRSPSTATLSLPSLEAYRDPSCLSPASSLSSRSCNSEASSYESNYSYPYASPQTSPWQSPCVSPKTTDPEEGFPRGLGACTLLGSPRHSPSTSPRASVTEESWLGARSSRPASPCNKRKYSLNGRQPPYSPHHSPTPSPHGSPRVSVTDDSWLGNTTQYTSSAIVAAINALTTDSSLDLGDGVPVKSRKTTLEQPPSVALKVEPVGEDLGSPPPPADFAPEDYSSFQHIRKGGFCDQYLAVPQHPYQWAKPKPLSPTSYMSPTLPALDWQLPSHSGPYELRIEVQPKSHHRAHYETEGSRGAVKASAGGHPIVQLHGYLENEPLMLQLFIGTADDRLLRPHAFYQVHRITGKTVSTTSHEAILSNTKVLEIPLLPENSMRAVIDCAGILKLRNSDIELRKGETDIGRKNTRVRLVFRVHVPQPSGRTLSLQVASNPIECSQRSAQELPLVEKQSTDSYPVVGGKKMVLSGHNFLQDSKVIFVEKAPDGHHVWEMEAKTDRDLCKPNSLVVEIPPFRNQRITSPVHVSFYVCNGKRKRSQYQRFTYLPANVPIIKTEPTDDYEPAPTCGPVSQGLSPLPRPYYSQQLAMPPDPSSCLVAGFPPCPQRSTLMPAAPGVSPKLHDLSPAAYTKGVASPGHCHLGLPQPAGEAPAVQDVPRPVATHPGSPGQPPPALLPQQVSAPPSSSCPPGLEHSLCPSSPSPPLPPATQEPTCLQPCSPACPPATGRPQHLPSTVRRDESPTAGPRLLPEVHEDGSPNLAPIPVTVKREPEELDQLYLDDVNEIIRNDLSSTSTHS
On to B2, for which, in assay [1], the binding result is reported as “binds”.

B3: 14-3-3γ, endogenous in mouse pre-osteoclasts (protein, UniProt P61982 1-247)
chain: T4 sequence
Take B3: the binding entry is reported as “binds” in assay [5], “binds” in assay [8] and “no binding” in assay [6].

B4: SELENOW (retrovirally overexpressed in pre-osteoclasts) (protein, UniProt P63300 1-88)
chain: T1 sequence (chain, selenocysteine at 13 (SeCys-13))
modifications: selenocysteine at 13 (SeCys encoded by UGA at codon 13)
As for B4, the binding entry in assay [8], in assay [6] and in assay [7] was “binds” throughout.
